Experimental data from PubChem BioAssay AID2685 (National Center for Advancing Translational Sciences (NCATS), 2010).
Values joined by “and” are separate entries in the source; they are usually repeats but may differ in a detail not shown here. Equal entries are not always repeated. Some of the results follow. These are further read-outs of the screen, such as a control signal, another cell line or another target. No call is given for them. Compounds called inactive in the main read-out are mostly missing here. Potencies come from curve fits of mixed quality, noted in brackets.

Assay: qHTS Assay for Lipid Storage Modulators in Drosophila S3 Cells;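 on cell number change: cells counted by Cell Tracker Red CMTPX staining in the red channel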
Conditions: BODIPY lipid droplet fluorescence, 18-24 h; for cell number change: measured here: cell count max response, cells fed with added oleic acid
Method in brief: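 Laser-scanning cytometry quantifies lipid droplet accumulation (500–530 nm total intensity; droplet/cell object ratio) in oleic acid-fed (400 uM added) Drosophila S3 cells treated with a concentration series. 20 uM Triacsin C defined 100% inhibition.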

[1] = measured here: lipid fluorescence (Fed channel) AC50, cells fed with added oleic acid
[2] = measured here: cell number channel AC50, cells fed with added oleic acid

Row | SMILES | cell number change | AC50 [1] | AC50 [2]
1 | Cc1cc(C)cc(OCCOc2cccc(C=C3C(=O)NC(=O)NC3=O)c2)c1 | -6.56% | 6.51 µM [falling, partial curve, poor fit] | 
2 | Cc1cccc(OCC(=O)N2CCN(Cc3ccncc3)CC2)c1 | 61.9% |  | 18.4 µM [rising, single point]
3 | Cc1cc(OC(=O)CCCNC(=O)OC(C)(C)C)c2c3c(c(=O)oc2c1)CCC3 | -36.7% |  | 
4 | Cc1ccccc1Cc1c(C)nc2nc(SCC(=O)N3CCC4(CC3)OCCO4)nn2c1C | 7.65% |  | 
5 | CCOP(=O)(OCC)C(O)c1ccc(OC)cc1 (stereo not given) | 9.47% | 2.91 µM [rising, full curve, poor fit] | 
6 | CC(C)c1ccc(N=Cc2c(O)n(C3CC3)c(=S)[nH]c2=O)cc1 | -3.42% | 0.13 µM [falling, full curve, poor fit] | 0.13 µM [falling, full curve, poor fit]
7 | Cc1ccc2c(c1)C1CN(C)CCC1N2C(=O)Cn1cnc2c1c(=O)n(C)c(=O)n2C (stereo not given) | -37.1% |  | 1.16 µM [falling, full curve, poor fit]
8 | Cc1ccc(CC(=O)N2CCN(Cc3ccccc3)CC2)cc1 | -12.7% | 0.146 µM [rising, single point] | 0.58 µM [rising, single point]
9 | Cc1ccccc1-c1nc2ccccc2c(=O)n1C | -1.17% | 3.26 µM [rising, single point] | 
10 | COC(=O)c1ccc(NC(=O)CSc2nc3ccc(N4C(=O)C5C6C=CC(C6)C5C4=O)cc3s2)cc1 (stereo not given) | 23.4% | 0.82 µM [falling, full curve] | 
11 | CCNc1cc(N2CCNCC2)ccc1[N+](=O)[O-] | -11.2% | 0.517 µM [falling, single point] | 
12 | CCN(CC)C(=O)c1ccc(NC(=O)Nc2ccccc2F)cc1 | 35.9% | 20.6 µM [rising, single point] | 2.31 µM [rising, full curve]
13 | CC(=O)Nc1ccc(C2CN(C)CC2C(=O)c2ccc(Cl)cc2)cc1 (stereo not given) | 19.3% |  | 
14 | C[C@H]1CCCC(=O)CCCCCc2cc(O)cc(O)c2C(=O)O1 | -49.4% |  | 18.4 µM [falling, partial curve]
15 | CCC(C#N)(CC)P(=S)(c1ccccc1)c1ccccc1 | 11.5% | 14.6 µM [rising, single point] | 
16 | COC(=O)C1=C(c2c(C)noc2C)C[C@@H]2CC[C@H]1N2C(=O)NCCOc1ccc(OC)cc1 | -40.3% |  | 6.51 µM [falling, single point]
17 | CC(C)c1ccc(NC(=O)CCNC(=O)N2C[C@H]3C[C@@H](C2)c2cccc(=O)n2C3)cc1 | -3.95% |  | 
18 | O=C1CCCN1C(=O)c1cncc(Br)c1 | 1.79% | 0.58 µM [rising, single point] | 
19 | CC(NCc1ccccc1C(F)(F)F)C(O)c1ccccc1 (stereo not given) | 127% |  | 3.66 µM [falling, single point]
20 | Cc1cc(OCC(=O)NCC(O)c2ccccc2)c2c3c(c(=O)oc2c1)CCCC3 (stereo not given) | -8.06% |  | 
21 | COC(=O)C1=C(c2cccc(OCc3ccccc3)c2)C[C@@H]2CC[C@H]1N2C(=O)NCc1ccc(N(C)C)cc1 | 20.2% |  | 

Row | SMILES | cell number change | AC50 [1] | AC50 [2]
22 | CCCCCn1c(NC(=O)c2ccco2)c(C(=O)OCC)c2nc3ccccc3nc21 | 6.37% | 20.6 µM [rising, single point] | 
23 | C=C(C)CN1CC[C@]23c4c5ccc(O)c4O[C@H]2c2[nH]c4ccccc4c2C[C@@]3(O)C1C5 | -69.6% | 18.4 µM [falling, single point] | 23.1 µM [falling, single point]
24 | O=C1NCCN2CCCC12 (stereo not given) | 6.88% |  | 
25 | O=C1NC(=O)N(c2ccc3c(c2)OCO3)C(=O)/C1=C/c1ccsc1 | 8.67% | 18.4 µM [falling, partial curve] | 
26 | Cn1c(O)c(C=NCCCN2CCCC2=O)c(=O)n(C)c1=O | -16.6% | 0.517 µM [falling, single point] | 
27 | O=[N+]([O-])c1cccc(CN2CCN(Cc3ccc(Cl)cc3)CC2)c1 | -41% |  | 7.31 µM [falling, partial curve, poor fit]
28 | CCCCCn1c(=O)c(C(=O)NCc2ccccc2)c(O)c2ccccc21 | -4.76% | 0.206 µM [falling, full curve, poor fit] | 
29 | COc1ccc(NC(=O)N2C[C@@H]3C[C@@H](C2)c2cccc(=O)n2C3)c(OC)c1 | 20.1% | 6.51 µM [falling, single point] | 
30 | CSc1nc(N)c(N=Nc2ccc([As](=O)(O)O)cc2)c(=O)[nH]1 | -31.6% | 1.64 µM [falling, partial curve] | 
31 | CC1=CC(=O)NP(=O)(Oc2ccc3ccccc3c2)N1 (stereo not given) | 1.04% | 5.17 µM [rising, full curve] | 
32 | N=Cc1c(O)n(-c2ccccc2)c(=O)n(-c2ccccc2)c1=O | -19.9% | 23.1 µM [rising, single point] | 
33 | O=C(NC(=S)N1C[C@H]2C[C@H](C1)c1cccc(=O)n1C2)c1ccc(F)cc1 | 17.8% | 0.58 µM [falling, single point] | 
34 | CCc1nc2ccccc2c(=O)n1-c1ccc2ccccc2c1 | 33.4% | 13 µM [rising, partial curve] | 13 µM [rising, partial curve]
35 | Cn1c(O)c(C(=Nc2ccccc2)SCc2ccc(Cl)cc2)c(=O)n(C)c1=O | -19.8% | 29.1 µM [falling, single point] | 
36 | CC1CCN2c3nc4ccccn4c(=O)c3CC3(C(=O)N(C)C(=O)N(C)C3=O)C2C1 (stereo not given) |  | 2.06 µM [falling, partial curve] | 
37 | CCCCn1c(N)c(C(=O)NCCN2CCOCC2)c2nc3ccccc3nc21 | -9.09% | 18.4 µM [falling, single point] | 6.51 µM [rising, single point]
38 | CCCCN1CCC(C#N)(Nc2ccccc2)CC1 | -26.6% | 2.59 µM [falling, full curve] | 3.26 µM [falling, full curve, poor fit]
39 | CN(C)S(=O)(=O)c1cccc(C(=O)N2CCC(C(=O)O)(c3ccccc3)CC2)c1 | 21.7% |  | 0.731 µM [rising, full curve, poor fit]
40 | Cc1ccc2cc(C=C(C#N)C#N)c(Cl)nc2c1 | -15.9% | 32.6 µM [falling, single point] | 
41 | CCCCc1ncc(CN2CCCC(C(=O)c3ccc(SC)cc3)C2)[nH]1 (stereo not given) | -1.34% |  | 
42 | CCN(CC)C(=O)c1ccc(NC(=S)NC(=O)CCc2ccccc2)cc1 | 1.49% | 6.51 µM [falling, single point] | 

Row | SMILES | cell number change | AC50 [1] | AC50 [2]
43 | Cn1c(O)c(/C=N/c2ncccn2)c(=O)n(C)c1=O | -11.8% | 0.206 µM [falling, full curve, poor fit] | 0.184 µM [falling, full curve, poor fit]
44 | Cn1cccc1/C=C1/C(=O)NC(=O)N(Cc2ccc(F)cc2)C1=O | -15.7% | 0.184 µM [falling, full curve] | 
45 | CCCCCCCCCCCCCCCC[N+](C)(C)C | -47.6% |  | 16.4 µM [falling, partial curve, poor fit]
46 | Cc1ccc(S(=O)(=O)N2CCN(C(=O)COC(=O)Cc3ccccc3)CC2)c(C)c1 | -16.5% |  | 
47 | Cc1c(C=O)c2ccccc2n1Cc1ccccc1 | 3.56% |  | 
48 | O=C(Cc1c(O)c2ccccc2oc1=O)c1ccc(F)cc1 |  |  | 0.0164 µM [rising, full curve]
49 | CN1CCN(c2ccc(S(C)(=O)=O)cc2[N+](=O)[O-])CC1 | -6.51% | 6.51 µM [rising, single point] | 
50 | COc1cccc(-n2c(=S)[nH]c3ccccc3c2=O)c1 | -23.3% |  | 
51 | Oc1ccc2c3c1O[C@H]1[C@@H](O)CC[C@@]4(O)[C@@H](C2)N(CC2CCC2)CC[C@]314 | -29.6% and -25.8% | 20.6 µM [falling, single point] | 
52 | CCc1nc2ccc(N3CCN(C)CC3)cc2nc1CC | -7.95% | 0.0058 µM [falling, full curve, poor fit] | 
53 | COC1=CC(=O)O[C@@H](/C=C/c2ccccc2)C1 | 23.5% | 29.1 µM [rising, single point] | 
54 | CC(C)(C)C(=O)c1cn(Cc2ccccc2)c2ccccc12 | -30.5% |  | 5.8 µM [falling, partial curve]
55 | Cc1ccc2[nH]c(=S)n(-c3cccnc3)c(=O)c2c1 | 41.7% |  | 11.6 µM [rising, single point]
56 | O=c1[nH]c(=O)n(Cc2ccc(F)cc2)c(O)c1/C=N/Nc1ccccc1 |  | 0.58 µM [rising, full curve] | 
57 | Cc1ccc2c(c1N)C(=O)c1ccccc1C2=O | -64.1% | 0.116 µM [rising, single point] | 4.11 µM [falling, single point]
58 | C=COCCn1c(C)c(C(=O)OCC)c2cc(O)ccc21 |  | 1.46 µM [rising, single point] | 2.06 µM [rising, single point]
59 | CN1CCC(N(C)c2ncnc3ccc(Br)cc23)CC1 | 7.62% | 0.651 µM [falling, single point] | 
60 | COc1ccc(OC)c(NC2=NCCS2)c1 | 144% | 18.4 µM [rising, single point] | 4.11 µM [falling, single point]
61 | COc1cccc(CN2CCNCC2)c1OC | 3.67% | 16.4 µM [falling, single point] | 
62 | N#CCCn1cc(C(=O)O)c(-c2cccc([N+](=O)[O-])c2)n1 | -16.4% | 0.366 µM [rising, full curve, poor fit] | 

Excerpt: nos. 53–56
Row | SMILES | cell number change | AC50 [1] | AC50 [2]
53 | COC1=CC(=O)O[C@@H](/C=C/c2ccccc2)C1 | 23.5% | 29.1 µM [rising, single point] | 
54 | CC(C)(C)C(=O)c1cn(Cc2ccccc2)c2ccccc12 | -30.5% |  | 5.8 µM [falling, partial curve]
55 | Cc1ccc2[nH]c(=S)n(-c3cccnc3)c(=O)c2c1 | 41.7% |  | 11.6 µM [rising, single point]
56 | O=c1[nH]c(=O)n(Cc2ccc(F)cc2)c(O)c1/C=N/Nc1ccccc1 |  | 0.58 µM [rising, full curve] | 
